PMC4979448
No constants are given. Whether binding was seen depends on the method and setting. A result given as binding can be weak or reduced; the word gives no strength. For some assays here: In cells and extracts the contact can be indirect.

Amino acid sequences for entries named in this document (tags omitted). A change or cut given only in a name is not applied to a line headed by its entry.
UniProt A4I001: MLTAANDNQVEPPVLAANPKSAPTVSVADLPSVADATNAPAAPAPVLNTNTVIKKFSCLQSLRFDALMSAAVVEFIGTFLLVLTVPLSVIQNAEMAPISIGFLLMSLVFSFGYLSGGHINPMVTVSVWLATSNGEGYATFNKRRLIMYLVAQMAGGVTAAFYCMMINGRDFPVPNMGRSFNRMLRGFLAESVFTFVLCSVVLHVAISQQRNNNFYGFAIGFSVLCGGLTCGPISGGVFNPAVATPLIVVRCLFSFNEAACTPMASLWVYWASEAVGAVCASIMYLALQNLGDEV
UniProt Q07817: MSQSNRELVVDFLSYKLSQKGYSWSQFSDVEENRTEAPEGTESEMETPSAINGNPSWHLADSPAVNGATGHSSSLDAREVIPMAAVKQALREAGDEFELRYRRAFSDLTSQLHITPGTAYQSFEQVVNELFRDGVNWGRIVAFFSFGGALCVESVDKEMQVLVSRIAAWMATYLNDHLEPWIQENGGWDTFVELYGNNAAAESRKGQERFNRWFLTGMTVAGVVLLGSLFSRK

Columns and labels:
[1] = target: Myc-tagged Li-BH3AQP (Leishmania infantum) (UniProt A4I001); experiment: co-IP; Myc-Li-BH3AQP and Flag-Bcl-XL coexpressed in HEK293T cells for 24 h; whole-cell extracts; immunoprecipitation with resin-conjugated anti-Myc antibody; western blot with anti-Flag
[2] = target: human Bcl-XL bound to the DNA-binding domain of GAL4 (human) (UniProt Q07817); experiment: two-hybrid; S. cerevisiae AH109; Bcl-XL on the Gal4 DNA-binding domain as bait (pGBKT7), Li-BH3AQP on the Gal4 activation domain as prey (pGADT7); growth on -Leu/-Trp/-Ade/-His + x-alpha-Gal

Q: How did the binding [1] turn out when “Flag-tagged human Bcl-XL (from UniProt Q07817-1 1-233)” was run?
A: binds

Q: How did the binding [2] turn out when “Li-BH3AQP bound to the activation domain of GAL4 (from UniProt A4I001)” was run?
A: binds
